Reference: paper PMC4191416
No constants are given. Whether binding was seen depends on the method and setting. For some assays here: Binding seen in cells or lysates may run through a third protein. Some results given as binding are weak or reduced against the parent protein; the word gives no strength. Sequences can lack the tags named with a protein.

The chains behind the UniProt entries cited, without tags or fusion partners.
UniProt Q9UT24: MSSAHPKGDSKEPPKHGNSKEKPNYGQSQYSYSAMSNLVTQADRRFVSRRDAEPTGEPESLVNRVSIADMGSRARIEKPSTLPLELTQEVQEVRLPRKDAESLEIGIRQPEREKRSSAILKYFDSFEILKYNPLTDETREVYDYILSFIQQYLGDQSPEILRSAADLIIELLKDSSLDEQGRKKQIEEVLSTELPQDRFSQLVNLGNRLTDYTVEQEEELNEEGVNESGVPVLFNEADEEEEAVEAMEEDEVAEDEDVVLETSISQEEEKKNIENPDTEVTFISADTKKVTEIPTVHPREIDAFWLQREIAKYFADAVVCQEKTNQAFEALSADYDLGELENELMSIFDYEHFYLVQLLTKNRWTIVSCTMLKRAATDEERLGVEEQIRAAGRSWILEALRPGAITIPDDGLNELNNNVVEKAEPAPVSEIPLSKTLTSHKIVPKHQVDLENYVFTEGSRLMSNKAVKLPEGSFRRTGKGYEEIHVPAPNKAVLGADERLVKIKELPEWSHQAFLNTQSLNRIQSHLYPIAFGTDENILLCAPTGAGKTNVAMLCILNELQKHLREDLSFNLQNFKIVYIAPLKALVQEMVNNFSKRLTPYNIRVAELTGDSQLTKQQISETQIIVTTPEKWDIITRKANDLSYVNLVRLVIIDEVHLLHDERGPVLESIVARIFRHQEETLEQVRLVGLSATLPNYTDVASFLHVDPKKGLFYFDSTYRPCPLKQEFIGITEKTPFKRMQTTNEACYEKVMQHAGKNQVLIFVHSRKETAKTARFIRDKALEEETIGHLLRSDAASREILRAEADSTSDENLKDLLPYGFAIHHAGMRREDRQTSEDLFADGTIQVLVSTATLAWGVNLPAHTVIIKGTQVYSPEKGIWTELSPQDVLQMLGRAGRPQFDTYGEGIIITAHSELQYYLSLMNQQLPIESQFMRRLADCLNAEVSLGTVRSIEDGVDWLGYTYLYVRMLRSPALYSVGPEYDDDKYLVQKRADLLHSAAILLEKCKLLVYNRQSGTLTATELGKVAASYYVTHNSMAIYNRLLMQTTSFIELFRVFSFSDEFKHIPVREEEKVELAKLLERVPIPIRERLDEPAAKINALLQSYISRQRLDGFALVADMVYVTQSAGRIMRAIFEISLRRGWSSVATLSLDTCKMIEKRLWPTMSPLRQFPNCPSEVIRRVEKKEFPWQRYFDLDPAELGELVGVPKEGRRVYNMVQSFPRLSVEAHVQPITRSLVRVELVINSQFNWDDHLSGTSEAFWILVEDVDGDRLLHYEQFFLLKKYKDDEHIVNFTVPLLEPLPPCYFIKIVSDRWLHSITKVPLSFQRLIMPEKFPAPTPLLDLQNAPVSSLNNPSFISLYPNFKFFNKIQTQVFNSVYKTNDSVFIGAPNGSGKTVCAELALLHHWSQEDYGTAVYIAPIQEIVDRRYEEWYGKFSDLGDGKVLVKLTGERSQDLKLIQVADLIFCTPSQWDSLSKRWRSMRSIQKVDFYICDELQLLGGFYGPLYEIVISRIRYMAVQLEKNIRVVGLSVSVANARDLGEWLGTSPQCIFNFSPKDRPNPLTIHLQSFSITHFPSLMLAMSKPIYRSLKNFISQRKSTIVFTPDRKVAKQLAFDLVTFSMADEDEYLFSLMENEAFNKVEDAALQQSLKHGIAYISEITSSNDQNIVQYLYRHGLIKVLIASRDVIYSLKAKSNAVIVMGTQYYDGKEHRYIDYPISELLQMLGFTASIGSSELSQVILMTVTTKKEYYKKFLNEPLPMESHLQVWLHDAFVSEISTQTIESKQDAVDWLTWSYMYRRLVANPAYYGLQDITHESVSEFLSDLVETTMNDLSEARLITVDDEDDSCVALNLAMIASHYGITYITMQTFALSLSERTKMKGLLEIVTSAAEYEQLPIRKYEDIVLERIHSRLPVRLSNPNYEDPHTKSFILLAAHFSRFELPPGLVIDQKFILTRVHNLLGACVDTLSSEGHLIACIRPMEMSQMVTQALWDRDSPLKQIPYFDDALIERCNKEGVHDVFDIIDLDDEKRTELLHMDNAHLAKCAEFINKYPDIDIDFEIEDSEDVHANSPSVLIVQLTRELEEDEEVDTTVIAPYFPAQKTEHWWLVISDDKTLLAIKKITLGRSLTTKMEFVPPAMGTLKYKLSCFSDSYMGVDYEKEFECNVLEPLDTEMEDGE

What was measured:
[1] = biological target: T1, Tls1 fused with the GAL4 DNA-binding domain (S. pombe) (UniProt Q10148); assay: two-hybrid; Tls1 fused with the GAL4 DNA-binding domain (pGBT9), Brr2 with the GAL4 activation domain (pGAD424), strain pJ69-4A; HIS3 reporter, growth on medium lacking histidine
T1 sequence: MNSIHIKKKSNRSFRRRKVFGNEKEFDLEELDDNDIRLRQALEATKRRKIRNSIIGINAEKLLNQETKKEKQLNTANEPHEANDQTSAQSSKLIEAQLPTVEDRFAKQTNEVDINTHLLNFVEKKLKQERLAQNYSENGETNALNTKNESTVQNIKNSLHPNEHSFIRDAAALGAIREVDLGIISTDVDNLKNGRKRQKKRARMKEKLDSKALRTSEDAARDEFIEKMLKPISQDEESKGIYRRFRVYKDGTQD

[2] = biological target: T2, N-terminal Flag-tagged Tls1 (S. pombe) (UniProt Q10148); assay: co-IP; whole cell extracts incubated with Flag-agarose beads to pull down Flag-Tls1; western blot with Flag and myc antibodies; 1xHC buffer with 250 mM KCl
T2 sequence: T1 sequence

binding [1]	binding [2]	Substance
binds	–	Brr2 fused with the GAL4 activation domain (from UniProt Q9UT24 1-2176)
–	binds	C-terminal myc-tagged Brr2 (from UniProt Q9UT24 1-2176)
